Source: the supplement of paper PMC12282887
These are raw signals, not scaled to a control.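 Maximum concentrations were near the MIC for antimicrobials, 500 µM for most other compounds, and as high as 1 mM for known inducer-like compounds. Deletion strains began with a tenfold smaller inoculum, and wells with growth under 10% of the overall median counted as non-growing.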

Tested on: Escherichia coli BW25113
Assay: growth (OD600 area under curve, 8 h) (OD600 x h); higher = more growth
Experimental: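 E. coli BW25113 reporter strains (wild type, ΔmarA, ΔsoxS, Δrob, each carrying one of 8 lux reporter plasmids) were grown in 40 µl LB in 384-well plates at 37°C, 800 rpm, with each compound at 4 two-fold concentrations, in biological duplicates. Growth is the baseline-corrected OD600 area under the curve over 8 h (0-8 h WT, 1-9 h deletion strains).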

C[C@]12CCC(=O)C=C1CC[C@@H]1[C@@H]2[C@@H](O)C[C@@]2(C)[C@H]1CC[C@]2(O)C(=O)CO [Hydrocortisone]
growth
Conditions | reporter plasmid: EVC | reporter plasmid: acrABp | reporter plasmid: marRABp | reporter plasmid: micFp | reporter plasmid: ompFp | reporter plasmid: robp | reporter plasmid: soxSp | reporter plasmid: tolCp
22.7 µg/ml, genetic background: wild type | 3.41 | 3.5 | 3.5 | 3.26 | 3.27 | 3.539 | 3.33 | 3.31
22.7 µg/ml, genetic background: ΔmarA | 3.96 | 4.73 | 4.25 | 3.83 | 3.87 | 4.55 | 3.82 | 3.76
22.7 µg/ml, genetic background: Δrob | 3.27 | 3.27 | 3.68 | 3.48 | 2.99 | 3.11 | 3.34 | 3.61
22.7 µg/ml, genetic background: ΔsoxS | 3.61 | 3.79 | 3.51 | 3.4 | 3.43 | 3.67 | 3.63 | 3.63
45.3 µg/ml, genetic background: wild type | 3.178 | 3.48 | 3.496 | 3.16 | 3.23 | 3.409 | 3.08 | 3.19
45.3 µg/ml, genetic background: ΔmarA | 3.61 | 4.48 | 4.09 | 3.63 | 3.71 | 4.31 | 3.49 | 3.63
45.3 µg/ml, genetic background: Δrob | 3.27 | 3.03 | 3.48 | 3.27 | 2.79 | 2.68 | 3.19 | 3.41
45.3 µg/ml, genetic background: ΔsoxS | 3.482 | 3.63 | 3.29 | 3.04 | 3.29 | 3.23 | 3.47 | 3.4
90.6 µg/ml, genetic background: wild type | 3.262 | 3.25 | 3.44 | 3.19 | 3.23 | 3.57 | 3.18 | 3.23
90.6 µg/ml, genetic background: ΔmarA | 3.59 | 4.17 | 4.12 | 3.73 | 3.78 | 4.29 | 3.58 | 3.6042
90.6 µg/ml, genetic background: Δrob | 3.32 | 3.48 | 3.6 | 3.32 | 2.94 | 3.16 | 3.11 | 3.4
90.6 µg/ml, genetic background: ΔsoxS | 3.47 | 3.68 | 3.65 | 3.16 | 3.3 | 3.54 | 3.47 | 3.421
181.2 µg/ml, genetic background: wild type | 3.1 | 3.24 | 3.27 | 3.07 | 3.4 | 3.45 | 3.15 | 3.18
181.2 µg/ml, genetic background: ΔmarA | 3.39 | 4.34 | 3.88 | 3.57 | 3.67 | 4.24 | 3.39 | 3.38
181.2 µg/ml, genetic background: Δrob | 3.3 | 3.1 | 3.47 | 3.27 | 2.91 | 2.91 | 3.04 | 3.26
181.2 µg/ml, genetic background: ΔsoxS | 3.38 | 3.56 | 3.39 | 3.2 | 3.09 | 3.22 | 3.32 | 3.35

c1ccc2[nH]ccc2c1 [Indole]
growth
Conditions | reporter plasmid: EVC | reporter plasmid: acrABp | reporter plasmid: marRABp | reporter plasmid: micFp | reporter plasmid: ompFp | reporter plasmid: robp | reporter plasmid: soxSp | reporter plasmid: tolCp
14.6 µg/ml, genetic background: wild type | 2.91 | 2.9 | 2.98 | 3.24 | 2.88 | 3.13 | 3.11 | 3.09
14.6 µg/ml, genetic background: ΔmarA | 3.38 | 4.21 | 3.44 | 3.15 | 3.4 | 3.55 | 3.05 | 3.03
14.6 µg/ml, genetic background: Δrob | 2.92 | 2.79 | 3.3 | 3.24 | 2.67 | 2.54 | 3.05 | 3.2
14.6 µg/ml, genetic background: ΔsoxS | 3.07 | 3.09 | 3.01 | 2.74 | 2.7 | 2.75 | 2.96 | 3.07
29.3 µg/ml, genetic background: wild type | 2.81 | 2.69 | 3.046 | 3.13 | 2.85 | 3.06 | 2.91 | 3.1
29.3 µg/ml, genetic background: ΔmarA | 3.23 | 4.1 | 3.37 | 3.16 | 3.42 | 3.44 | 3.05 | 3.02
29.3 µg/ml, genetic background: Δrob | 2.62 | 2.66 | 3.39 | 3.08 | 2.52 | 2.42 | 3.05 | 3.2
29.3 µg/ml, genetic background: ΔsoxS | 2.81 | 2.82 | 3.17 | 2.61 | 2.6 | 2.92 | 2.79 | 3.02
58.6 µg/ml, genetic background: wild type | 3.07 | 3.04 | 3.235 | 3.07 | 3.08 | 3.19 | 2.9968 | 3
58.6 µg/ml, genetic background: ΔmarA | 3.27 | 4.4 | 3.92 | 3.33 | 3.48 | 3.66 | 3.01 | 3.14
58.6 µg/ml, genetic background: Δrob | 2.88 | 3.18 | 3.57 | 3.15 | 2.66 | 2.72 | 3.08 | 3.28
58.6 µg/ml, genetic background: ΔsoxS | 3.28 | 3.3 | 3.43 | 2.74 | 2.99 | 3.38 | 3.28 | 3.26
117.2 µg/ml, genetic background: wild type | 2.73 | 2.3 | 2.81 | 2.59 | 2.44 | 2.56 | 2.51 | 2.89
117.2 µg/ml, genetic background: ΔmarA | 3.17 | 3.99 | 3.317 | 3.22 | 3.01 | 3.33 | 2.58 | 2.79
117.2 µg/ml, genetic background: Δrob | 2.47 | 2.44 | 2.98 | 2.7 | 2.363 | 2.17 | 2.47 | 3.04
117.2 µg/ml, genetic background: ΔsoxS | 2.81 | 2.62 | 2.64 | 2.28 | 2.19 | 2.34 | 2.65 | 3.0006
